Screen size: about 400,000 compounds; about 13,000 (3.2%) were called active. Inconclusive means that the source gave no clear call. Such entries were picked first, then a sample of the others. Calls follow the shape of the dose curve; as a rule, active = well fitted cell-killing curve with a large enough effect; inconclusive = small, poorly fitted or top-dose-only effect, or effect the other way; inactive = flat fitted curve, though single readings scatter. A potency beside an inconclusive call is a rough fit, not a confirmed value.
Assay: qHTS assay for MDR1-selective chemotherapeutics: Primary screen using the drug-selected MDR subline cells KB-V1; also: nearly all actives have a fitted effect of over 60% in size
Conditions: KB-V1 MDR cells viability, CellTiter-Glo, 72 h; series mostly up to 46.1 µM
From the text: A prime difficulty in effectively treating cancer is the development of cellular resistance to multiple structurally unrelated anticancer drugs, a phenomenon known as multidrug resistance (MDR). […] Numerous strategies to overcome P-gp-mediated MDR have been explored, including the design of drugs that evade recognition and efflux, and development of inhibitors to block efflux and restore drug accumulation. […] An alternative approach is to exploit resistance by identifying drugs that target MDR cells over the non-resistant parental cells from which they were selected. […] The development of MDR1-selective agents represents a new strategy for resolving multidrug resistance, as it remains a long-standing clinical challenge for cancer chemotherapy.
Our goal is to identify compounds that selectively kill P-gp-expressing MDR cells. We will identify MDR1-selective compounds by comparing toxicity of compounds in the screening library against parental, drug-naive (KB-3-1) adenocarcinoma cells as well as their drug-selected MDR sub-line (KB-V1). The differential toxicity of compounds against these two cell lines will be used to identify MDR1-selective compounds, whose cytotoxicity is potentiated, rather than diminished, by P-gp expression. This assay will be utilized to conduct a quantitative high-throughput screen (qHTS) in collaboration with the NIH Chemical Genomics Center to identify selective agents, and probe hits arising from the screen will be validated using secondary assays and characterized through a well-established follow-up research program. This screen was run against the entire NCGC library collection of about 400,000 compounds.
NIH Molecular Libraries Probe Production Network [MLPCN]
NIH Chemical Genomics Center [NCGC]
PI: Michael Gottesman, National Cancer Institute, NIH
Briefly, 5 microL of media containing either KB-V1 cells (columns 1-2, 4-48) are dispensed into Greiner white, treated solid-bottom 1536-well assay plates (media-only control is added to column 3). Compounds are then transferred via Kalypsys pin tool equipped with 1536-pin array (10 nL slotted pins, V&P Scientific, San Diego, CA). Following addition of compound, the plates are incubated at 37 degrees C for 72 hours. CellTiter-Glo (2.5 µL/well) is then added, and the plates are read in a ViewLux reader (Perkin-Elmer, clear luminescence filter, 1 second exposure, 1x binning) following a 10 minute incubation. All cells are dispensed in DMEM phenol-red free media containing 10% FBS.
Library plates were screened starting from the lowest and proceeding to the highest concentration. Vehicle-only plates, with DMSO being pin-transferred to columns 5-48, will be inserted uniformly at the beginning and the end of each library in order to monitor and record any shifts in the background, which can be affected by reagent dispensers or loss in enzyme activity over time. Screening data will be corrected, normalized, and concentration-effect relationships will be derived by using publicly-available NCGC, NCATS curve fitting algorithms (http://ncgc.nih.gov/pub/openhts).
Potency is read from the fitted curve at half-maximal effect.

SMILES	Potency
O=C1CN(C(=O)COc2ccc(Br)cc2)c2ccccc2N1	inconclusive: 18.4 µM [cytotoxic, single point]
C[C@@H]1O[C@H](C2CCCCC2)Cc2[nH][nH]c(=O)c21	inconclusive: 23.1 µM [cytotoxic, partial curve, poor fit]
COc1ccc(S(=O)(=O)N2CCCC2C(=O)Nc2nnc(-c3cccnc3)s2)cc1 (stereo not given)	inactive
O=C1CC(N(CCc2ccccc2)C(=S)Nc2cc(Cl)ccc2Cl)C(=O)N1c1c(Cl)cccc1Cl (stereo not given)	inconclusive: 14.6 µM [cytotoxic, partial curve, poor fit]
CC(C)Oc1ccc(CN2CCC2(C)C(=O)NCc2cccc3ccccc23)cc1 (stereo not given)	inconclusive: 20.6 µM [cytotoxic, single point]
COc1ccc(N2CCN(C(=O)c3ccc4c(Cl)c5c(nc4c3)CCCC5)CC2)cc1	inactive
Cc1cccc(OCCN2C(=O)C(=O)c3cc(C)ccc32)c1	inconclusive: 23.1 µM [cytotoxic, single point]
O=C(COC(=O)[C@@H]1CCCN1S(=O)(=O)c1ccccc1F)c1ccccc1	inconclusive: 29.1 µM [rising, single point]
CCOc1ccccc1NC(=O)NC1CC2CCCC(C1)N2Cc1nnnn1CCc1ccccc1 (stereo not given)	inconclusive: 18.4 µM [cytotoxic, partial curve]
CCOC(=O)c1ccc2c(c1)N(Cc1ccccc1C)C(=O)c1ccccc1S2=O (stereo not given)	inconclusive: 4.11 µM [cytotoxic, partial curve]
N#Cc1ccc(C23CC4(C2)[C@H](CN(CC2CCCCC2)[C@@H]4c2ccccc2)C3c2ccccc2)cc1 (stereo not given in full)	inconclusive: 7.31 µM [rising, partial curve, poor fit]
Cc1ccc(CNC(=O)C2CCN(S(=O)(=O)c3ccc4c(c3)CC(C)N4C(=O)C3CCC3)CC2)o1 (stereo not given)	inconclusive: 20.6 µM [cytotoxic, single point]
Cc1cc(N2C(=O)CC(Cc3ccc(Cl)cc3)C2=O)no1 (stereo not given)	inconclusive: 29.1 µM [rising, single point]
COc1cccc(NC(=O)NCCc2ccc(Cl)cc2)c1	inconclusive: 20.6 µM [rising, single point]
COc1cc(C(=O)NCc2nnc(SCC(=O)Nc3cccc(C(F)(F)F)c3)o2)cc(OC)c1OC	inconclusive: 16.4 µM [rising, partial curve]
CC(C)Cn1c(N)c(C(=O)COC(=O)c2cc(-c3ccccc3)nc3ccccc23)c(=O)n(C)c1=O	inconclusive: 20.6 µM [cytotoxic, single point]
O=C(Nc1ccccc1C(=O)NCCc1ccccc1)c1cnccn1	inactive
COc1ccc(NC(=O)CN(C)CC(=O)Nc2ccc(N3CCOCC3)cc2)c([N+](=O)[O-])c1	inconclusive: 4.61 µM [cytotoxic, partial curve]
CN(CC1COc2ccccc2O1)C(=S)Nc1ccccc1F (stereo not given)	inactive
C#CCNC(=O)C[C@@H]1C[C@@]2(C(=O)OC)CC(C)(C)CC=C2N(Cc2ccccc2)C1=O	inconclusive: 8.2 µM [cytotoxic, partial curve]

Ordered by heavy-atom count (smallest number first): some entries from above
SMILES	Potency
O=C(COC(=O)[C@@H]1CCCN1S(=O)(=O)c1ccccc1F)c1ccccc1	inconclusive: 29.1 µM [rising, single point]
Cc1ccc(CNC(=O)C2CCN(S(=O)(=O)c3ccc4c(c3)CC(C)N4C(=O)C3CCC3)CC2)o1 (stereo not given)	inconclusive: 20.6 µM [cytotoxic, single point]
CCOc1ccccc1NC(=O)NC1CC2CCCC(C1)N2Cc1nnnn1CCc1ccccc1 (stereo not given)	inconclusive: 18.4 µM [cytotoxic, partial curve]

More compounds

SMILES	Potency
CC(=O)c1cc(F)c(N2CCN(C(=O)Cc3ccccc3)CC2)cc1C	inconclusive: 6.51 µM [cytotoxic, partial curve, poor fit]
COc1ccccc1NS(=O)(=O)c1cc(NC(=O)/C=C/c2cccs2)ccc1N1CCOCC1	inconclusive: 1.3 µM [cytotoxic, full curve]
O=[N+]([O-])c1cc(-c2nc(-c3ccccc3)no2)ccc1NC1CCCC1	inactive
Cc1[nH]c2ccccc2c1C(=O)C(=O)N1CCN(c2ccccc2)CC1	inconclusive: 9.2 µM [cytotoxic, partial curve]
Cc1ccc(-n2nc3c(c2NC(=O)c2ccco2)CS(=O)C3)c(C)c1 (stereo not given)	inconclusive: 9.2 µM [rising, single point]
O=C(NCCc1ccncc1)Nc1ccc(Cl)c(Cl)c1	inactive
CCCc1cc(C(=O)Nc2c(C)nn(Cc3ccc(Cl)c(Cl)c3)c2C)no1	inconclusive: 20.6 µM [cytotoxic, single point]
O=C(COC(=O)C1CC(O)CN1S(=O)(=O)c1ccccc1[N+](=O)[O-])c1ccc[nH]1 (stereo not given)	inconclusive: 18.4 µM [cytotoxic, single point]
Cc1ccc(NC(=O)Cc2nnc(SCC(=O)NC3CCCC3)n2C)cc1C	inconclusive: 14.6 µM [rising, partial curve, poor fit]
COC(CN(C(=O)CCl)C(C(=O)NC1CCCC(C)C1C)c1ccc(C)cc1)OC (stereo not given)	inconclusive: 18.4 µM [cytotoxic, single point]
Cc1ccc2c(c1)C(=O)C(=O)N2Cc1ccc(C(F)(F)F)cc1	inconclusive: 29.1 µM [cytotoxic, single point]
COc1ccccc1/C=C\C(=O)NCC(=O)N/N=C/c1ccc(O)cc1O	inactive
CCN(CC)C(=O)Cn1cc(S(=O)(=O)CC(=O)Nc2cc(OC)ccc2OC)c2ccccc21	inactive
O=C(NCCNC(=O)c1ccc(-c2cc(Cl)ccc2Cl)o1)c1cnccn1	inconclusive: 20.6 µM [cytotoxic, partial curve, poor fit]
CCC(=O)Nc1ccc(NC(=S)Nc2ccccc2)cc1	inconclusive: 23.1 µM [rising, partial curve, poor fit]
Cc1ccc(Cn2c(SCc3ccc(C(=O)NC4CCCC4)cc3)nc3ccncc32)cc1	inactive
N=c1c2c3c(sc2ncn1Cc1ccccc1)CCCC3	inconclusive: 2.91 µM [cytotoxic, partial curve, poor fit]
COC1(OC)N=C(NC(=O)Nc2ccccc2)C2(C#N)C(c3ccccc3)C12C#N (stereo not given)	inconclusive: 16.4 µM [rising, partial curve]
Cn1c2ccccc2c(=O)c2c(=O)n(C3CCCCC3)c(-c3cccs3)nc21	active: 11.6 µM
Cc1ccc2nc(N(CCCN(C)C)C(=O)c3cc(-c4cccs4)nc4ccccc34)sc2c1	inconclusive: 29.1 µM [cytotoxic, single point]

Reference: PubChem BioAssay AID1347076 (National Center for Advancing Translational Sciences (NCATS), 2019)
